The results in this text go back to PMC7202507.

Amino acid sequences for entries named in this document (tags omitted).
UniProt Q00534: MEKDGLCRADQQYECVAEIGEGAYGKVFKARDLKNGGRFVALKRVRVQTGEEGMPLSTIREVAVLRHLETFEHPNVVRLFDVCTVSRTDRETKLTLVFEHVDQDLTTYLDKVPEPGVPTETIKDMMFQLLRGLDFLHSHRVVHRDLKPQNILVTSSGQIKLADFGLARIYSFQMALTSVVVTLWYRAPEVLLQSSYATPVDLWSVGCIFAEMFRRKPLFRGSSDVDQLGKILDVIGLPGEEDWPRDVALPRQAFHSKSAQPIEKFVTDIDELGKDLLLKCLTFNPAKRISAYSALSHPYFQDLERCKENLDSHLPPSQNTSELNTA

Results are given in words; binding and its absence hold for the method and conditions named. In cells and extracts the contact can be indirect. Some entries that bind do so weakly or less than the wild type.

The target in the assay is T1, UDP-GlcNAc pyrophosphorylase-1 like 1 (UAP1L1) (human) (UniProt Q3KQV9).
T1 sequence: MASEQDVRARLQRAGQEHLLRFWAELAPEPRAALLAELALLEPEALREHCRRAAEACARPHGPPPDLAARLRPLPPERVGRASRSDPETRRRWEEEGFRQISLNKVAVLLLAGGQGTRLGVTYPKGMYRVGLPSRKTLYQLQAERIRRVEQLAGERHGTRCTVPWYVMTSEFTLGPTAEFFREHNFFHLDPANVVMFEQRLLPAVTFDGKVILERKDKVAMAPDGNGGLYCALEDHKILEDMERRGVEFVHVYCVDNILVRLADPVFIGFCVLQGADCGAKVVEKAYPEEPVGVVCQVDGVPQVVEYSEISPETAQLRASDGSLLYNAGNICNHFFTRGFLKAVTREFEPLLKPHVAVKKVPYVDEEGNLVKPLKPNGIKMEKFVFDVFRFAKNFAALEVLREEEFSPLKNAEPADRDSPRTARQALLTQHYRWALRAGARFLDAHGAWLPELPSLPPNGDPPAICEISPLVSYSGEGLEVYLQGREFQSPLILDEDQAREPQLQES
The assay can be described thus: co-IP; cell lysate in RIPA buffer, 1.0-1.2 mg proteins, normal rabbit IgG as control, protein A/G-beads, immunoblotting; precipitating antibody and cell line not told. Background: Immunoblotting shows a protein as a band on a membrane.

With CDK6 (from UniProt Q00534 1-326), the binding result is on record as “binds”.
